The chains behind the UniProt entries cited, without tags or fusion partners. Where a name states a change or a piece, a line headed by the entry shows the natural chain unless it says otherwise.
UniProt Q8WUX9: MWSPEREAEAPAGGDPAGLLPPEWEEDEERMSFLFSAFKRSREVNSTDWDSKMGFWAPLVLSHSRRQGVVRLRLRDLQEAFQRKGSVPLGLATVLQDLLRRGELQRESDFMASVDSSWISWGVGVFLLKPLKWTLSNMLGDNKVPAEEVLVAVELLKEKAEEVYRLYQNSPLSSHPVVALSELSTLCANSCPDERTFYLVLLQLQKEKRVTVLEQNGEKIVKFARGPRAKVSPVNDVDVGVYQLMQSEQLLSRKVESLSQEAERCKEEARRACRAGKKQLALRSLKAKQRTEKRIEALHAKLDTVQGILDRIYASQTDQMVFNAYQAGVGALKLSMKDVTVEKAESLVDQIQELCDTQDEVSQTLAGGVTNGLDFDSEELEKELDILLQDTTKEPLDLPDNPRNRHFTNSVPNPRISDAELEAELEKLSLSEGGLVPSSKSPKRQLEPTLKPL

In paper PMC8324300:

Target: GFP-CHMP7 δHelix6 (human) (UniProt Q8WUX9)
Assay: co-IP; GFP-trap capture from 293T cells transiently expressing HA-CHMP4B and GFP-CHMP7 or GFP-CHMP7 δHelix6; blots with anti-GFP and anti-HA

- binding: binds
B1: HA-CHMP4B (protein, UniProt Q9H444 1-224)
chain: MSVFGKLFGAGGGKAGKGGPTPQEAIQRLRDTEEMLSKKQEFLEKKIEQELTAAKKHGTKNKRAALQALKRKKRYEKQLAQIDGTLSTIEFQREALENANTNTEVLKNMGYAAKAMKAAHDNMDIDKVDELMQDIADQQELAEEISTAISKPVGFGEEFDEDELMAELEELEQEELDKNLLEISGPETVPLPNVPSIALPSKPAKKKEEEDDDMKELENWAGSM

No constants are given. Whether binding was seen depends on the method and setting. In cells and extracts the contact can be indirect. Binding calls can cover weak binding; strength is not graded here. Sequences can lack the tags named with a protein.
